Data on 107 sequences can be found in PubChem BioAssay AID1508600 (Functional Genomics Laboratory (NCATS/FGL), 2020).

Screen size: about 53,000 sequences; about 3,700 (7%) were called active.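 Rule for the calls: active = gene knockdowns whose robust z-score for IL-1 alpha signal is at least 2 or at most -2, so actives lie on both sides; inactive = the rest.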 The list shows a part of the results.

The experiment can be described thus: Components of the Cytosolic LPS Sensing Pathway: Gene Identification via Genome-wide siRNA Screen.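 Note: robust z of the log signal after scaling to non-targeting control siRNA wells of the plate.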 To be noted: RAW264.7 macrophages, IL-1a HTRF, actives lie on both sides, screened at 100 nM (by protocol), cells primed 5 h with Pam3CSK4 first. The essentials:
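Cells (RAW264.7, 1×10^4 per well) were transfected with siRNA at 100 nM and cultured 48h at 37 degrees C. Pam3CSK4 was added for 5 hours; LipidA transfection followed for 24 hour. IL-1a was then measured by HTRF.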
For “CCUUAUGUGCACUAUAGCCTT against 1700028K03Rik”, the z-score was inactive: -0.236. For GCAUAUGCUUUUACAACACTT against Zfp280c, the z-score was inactive: 0.252. Consider CGCGCAGUUUGAAAACUAUTT against Septin8, for which the z-score is inactive: 0.705.

With GGUCUCAAAUGAAACAAACTT against Upk3b, the z-score was inactive: -1.05. Consider GGUAGAACUGGAGUAUUCUTT against Arhgap4, for which the z-score is inactive: 1.18. In the case of GCUCUCUCCUGCGCUAAAUTT against Camta2, the z-score is inactive: 0.864. The same measure for CCAUUUAACCUGAUUCUGUTT against Cntn1: inactive: -0.796.

On to GGACAACUAUGAAUUAGUGTT against Pfkp, for which the z-score is inactive: -0.801. In the case of GGUAUGAUUGAAUUUCGUGTT against Purg, the z-score is inactive: -0.871.

As for GGCCCUUCAGCAGAAAAAUTT against Chmp1a, the z-score is inactive: 0.256. Regarding GUAUAUUACCGUCGGAAUATT against Clec4b1, the z-score is inactive: 0.581. As for GGGAACCCUAACAACUUCGTT against Wfdc6b, the z-score was inactive: -0.274. As to GCUUAGAGCAUUUCAGUCUTT against Ncapd2, the z-score was inactive: -0.399. For the sequence GGUCAUUAGGAACUACACUTT against Vav3, the z-score is inactive: -0.781.

In the case of GGGUAUAUAAGCAGCACCATT against Rdh9, the z-score was inactive: 0.736. In the case of GGAUAAGAAGUCCAAGAACTT against Pknox2 it was inactive: -0.819; in that of GGAUUACGAGAAACUUGGUTT against Nmral1, inactive: -1.55. For CCCUGAACAAUCUGCUACATT against Enkd1, the z-score is inactive: -1.17. In the case of GGCUUUGAAAGUUCUUCAATT against Nkrf, the z-score is inactive: 0.548.

Turning to CGCUGAAAUGGUGAAUAAATT against Recql, the z-score is inactive: -0.0529. Turning to GGAUAAGGACCUCUUCUCUTT against Ubl7, the z-score is inactive: -1.41.

Take GGAGUAUGCUGUCAAAAUCTT against Mknk1: the z-score is inactive: 0.259. Regarding GGCAAGGACCCUGACCUAUTT against Ccr4, the z-score is inactive: -1.08.

With CCGCACAAGAGGUAGAUACTT against Ddx5, the z-score is active: -2.56. For GGGUUCUGGACAAGAUGAATT against Gpi1, the z-score is inactive: -0.148.

As for GGCCUUUUCUCAAGGAGAATT against Cadps2, the z-score is inactive: -0.15. Take CGGAAUUGGUGAUCUUUGUTT against Olfr1104: the z-score was inactive: -0.517. As to GCAAACCAACAGAUGCUGCTT against Zfp184, the z-score is inactive: -0.117.

Take GACCAUAGAGAUUAUCGUGTT against Retnla: the z-score is inactive: -0.172.

Turning to GGAAGGAAGUUAAUUCAUGTT against Zfp866, the z-score was inactive: 1.5. The same measure for GCCUCUAGUACAGACAACCTT against Rnf121: inactive: 0.464. Consider GCACAGAGUUUUACCUUCUTT against Olfr811, for which the z-score is inactive: -0.818. GGACAAUCCGUUCUUUCUGTT against Tgfb3: the z-score was inactive: 0.132. In the case of GGAAGUUUGCUAGAGUUAATT against Taf13 it was inactive: -1.87; in that of GGAAGUCAUCAAAGGCUUUTT against Fkbp1b, inactive: -0.117. Turning to GGAGGUGAAGCUUCGAAUGTT against Slc25a10, the z-score was inactive: 0.052. The same measure for CCCUCCUAUUAGCGCAUUUTT against Osbpl2: inactive: -0.239; for GGAGUGUCUCAGUUCAGUGTT against Ppp3r1: inactive: -1.49; for GGUCAGAGGCCAACAUGGUTT against Oas1e: inactive: 1.24.

Take GCAAACUGUCCUAUCUUGGTT against Cacna1d: the z-score was inactive: 0.84.

For the sequence GGUGGAGCACAUGUUCAGCTT against Rfwd3, the z-score is inactive: 0.996. Take GGAAAACAAGCCUAAGUCATT against Zfyve19: the z-score is inactive: 0.261. The same measure for GGAUCAUGUCAUCACAAAATT against Fzd3: inactive: -0.319; for GCUCGAGAGAUCAAUUUAATT against Olfr568: inactive: 0.241; for CCUAUUAAUAUGGAAAGUGTT against Arcn1: inactive: 0.675.

Take CCGAGCAGGAUUGCAUAUATT against Cspg5: the z-score is inactive: 1.41.

Take GGGAGACUUUCCAUUUGGUTT against Ap3s1: the z-score is inactive: -1.43. In the case of GGUCAUGAUGGUAUUGUGCTT against Traf7, the z-score is inactive: -0.519. GCGGUAAGAACGUGGAACUTT against Tent5b: the z-score is inactive: 0.536. With GCAGAGGGUGCUUGUAACCTT against Hp, the z-score was inactive: -0.314. CCUACAAAACCCUCAUGCUTT against Kcnk18: the z-score is inactive: -0.67. In the case of GGUGUGGAACGACAAACAGTT against Pla2g4f, the z-score was active: -2.8.

CGUACACCGUAUUCAUGACTT against Rapgef5: the z-score was active: 3.6.

Turning to GGAGGAGAUCCUUCAUUACTT against Psap, the z-score was inactive: -0.118. For CGCGCCCGUCAAAUUUGAUTT against Fam185a, the z-score is inactive: 0.186. In the case of GGAGCUGGUGGAUCUGAAGTT against Ubfd1 it was inactive: 1.26; in that of GGACAGCCAAAUAGAAUAATT against Atrn, inactive: 0.522; in that of GCGAAUCAGCACUUAUGGATT against Cd2ap, active: 2.65.

On to GGUUUCAGAAAAUCAACCATT against Ttll13, for which the z-score is inactive: 0.11. For the sequence GGACCAUCAGUACCAGUUUTT against Trim28, the z-score was inactive: 0.295. In the case of CGGUCUUCCCGUGGUUCAATT against Gm5114, the z-score is inactive: -0.992. Take GGAAAAGAAAACAGGAGAUTT against Edn3: the z-score is inactive: 0.355. GCACAACUUAUGACUGAAATT against Emc4: the z-score is inactive: 1.66. Consider GGCAAUACUGGAAGGGUGUTT against Eps15, for which the z-score is inactive: -1.03. For the sequence GCGGCGGAUAGUGUCACAUTT against Gmip, the z-score was inactive: -0.661. In the case of CGGAUUACAAACCAUAAAATT against Mex3b, the z-score was inactive: -0.497. The same measure for GGCCAAGUGCUCACAGUUCTT against Arpc1b: inactive: 1.1. Consider GGUCAGAUUAUGCUUUAGATT against Mrgpre, for which the z-score was inactive: -0.783. Turning to GCUAUUCGUACAUAUGAUUTT against Efcc1, the z-score is inactive: -0.479. For the sequence GGUCAAUCACUUAUAAUGUTT against Olfr771, the z-score was inactive: -0.573. Regarding GGCUGUCUGUUAAGAUUAATT against Olfr181, the z-score was inactive: -1.56. With GCUCCGAUAUCAUUUGUUUTT against Crh, the z-score is inactive: 0.262. Consider GGAAAGUGCAUCAUAGACATT against Thrb, for which the z-score was inactive: 0.153. GCUCCUGGCAUUAUUUUUUTT against Amz1: the z-score was inactive: 0.29. In the case of GGUUUUGAAGCUGAAAAUATT against Zfp60 it was inactive: 1.13; in that of CCCUAACAGCUGACGAUAATT against Tm7sf3, inactive: -0.791; in that of GGGCACACUUCUCUUCAUUTT against Olfr152, inactive: -0.187. With GGAAAGAUCUUAUAAUGUGTT against Zfp85, the z-score is inactive: 0.101. Regarding GGAUCAUAGUGUCUUUCAGTT against Dnaja4, the z-score is inactive: 0.894. As for GGAUCAAGUUGCCUCCGUUTT against Olfr1097, the z-score was inactive: 1.2. Take CCAAGGACAACCCUAUCAGTT against Cdsn: the z-score is inactive: -0.279. With “UUGUAUUGAGUGGUUAAGCTT against 3110053B16Rik”, the z-score is inactive: 1.41. For the sequence GGUGAACAUCUUCCAUUAUTT against Krtap3-2, the z-score was inactive: 0.344. In the case of GGGAUUUGUGAUUGAACUGTT against Fryl it was inactive: 0.395; in that of GCCUUGGCGACAAAGCUAATT against Shtn1, inactive: -0.222. The same measure for GGCCUACCACCUUCAGAAGTT against Rpl37: active: 2.01; for CGAGGGUGAAAGCUCUUUUTT against Zfp248: inactive: -0.702; for GGCCAUUCUUUGUCACCCATT against Os9: active: -2.87.

On to CCGGGUCAUUAUCUAUCAATT against Puf60, for which the z-score is inactive: -0.383. For the sequence GCCGUCAGAUGACAACUAGTT against Lta, the z-score was inactive: 0.481. GGUUAUUUCGGGAGAUAAGTT against Nudcd1: the z-score was inactive: -0.351.

Regarding GUCAAAUGGAGCAGAGCCATT against Cypt4, the z-score was inactive: -1.37. For the sequence GGGACCAUGAAUAAUGGCCTT against Snai1, the z-score was inactive: -0.0451. Regarding GCUUCAAGUUCGUACGCCUTT against Eif2b1, the z-score is inactive: 1.52. Take GGUUAGAAUAUGCAGAACATT against Arntl: the z-score is inactive: -0.525. For GGUAUACCACUAUUCUCACTT against Olfr649, the z-score was inactive: 0.705.

On to GCUUUUUAUAUGUGCGCAGTT against Zfp691, for which the z-score was inactive: 0.693.

For the sequence GCUACCUUUCUGAACAUACTT against Lcp2, the z-score is inactive: -0.083.

Take GGAUAUCAGGGUUGUUAAGTT against Txnl4b: the z-score was inactive: 0.952. The same measure for CCGCGUUCACAUUCUCUAATT against Hfe: inactive: -0.139; for “CCCAGAGAACUAGAAACGATT against 9430097D07Rik”: inactive: -0.273. Take “GGUCUUUCCUAAUAAGCAGTT against F830208F22Rik”: the z-score was inactive: 1.22. CGAGAUUUGGAAUGCCCUGTT against Fez2: the z-score is inactive: 0.25. As to GGUCAUAGAAGGGUUCAGCTT against Sbsn, the z-score was inactive: 0.322. The same measure for GGAAGAAUUUCGUACUAUGTT against Papolb: inactive: 0.858. As to “GGACCCAGCAGUCAAGAUATT against 9930038B18Rik”, the z-score was inactive: 0.0416.

On to GCUACCCAUGAGCUUUCGATT against S100a3, for which the z-score was inactive: 0.495.
